The test concerns Mycobacterium tuberculosis. Briefly: Antimycobacterial activity against Mycobacterium tuberculosis H37Ra by Microplate Alamar Blue Assay. The test is classed as functional. In outline:
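Microplate Alamar Blue assay with MIC as the endpoint; isoniazid and kanamycin sulfate were run as reference drugs.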
In general terms: Resazurin is reduced to fluorescent resorufin, in cell work by metabolically active cells.

The source of these data is ChEMBL document CHEMBL1146543, “New antimycobacterial and antimalarial 8,9-secokaurane diterpenes from Croton kongensis” (J Nat Prod, 2003).

Values after ≈ are worked out from the molar mass of the structure shown.

A word on the MIC: it is the lowest concentration found to suppress growth. Low readings indicate inhibition by little substance, high ones a need for much substance.

`NNC(=O)c1ccncc1` [ISONIAZID] had an MIC of 0.04 µg/mL (≈ 0.292 µM).
